# Assay results reported in paper PMC8517208.
# The chains behind the UniProt entries cited, without tags or fusion partners. Where a name states a change or a piece, a line headed by the entry shows the natural chain unless it says otherwise. A line that says so, or that is headed by a name, gives the form on record, which may keep a tag or linker. Residues count along the entry.
# UniProt A2AGT5: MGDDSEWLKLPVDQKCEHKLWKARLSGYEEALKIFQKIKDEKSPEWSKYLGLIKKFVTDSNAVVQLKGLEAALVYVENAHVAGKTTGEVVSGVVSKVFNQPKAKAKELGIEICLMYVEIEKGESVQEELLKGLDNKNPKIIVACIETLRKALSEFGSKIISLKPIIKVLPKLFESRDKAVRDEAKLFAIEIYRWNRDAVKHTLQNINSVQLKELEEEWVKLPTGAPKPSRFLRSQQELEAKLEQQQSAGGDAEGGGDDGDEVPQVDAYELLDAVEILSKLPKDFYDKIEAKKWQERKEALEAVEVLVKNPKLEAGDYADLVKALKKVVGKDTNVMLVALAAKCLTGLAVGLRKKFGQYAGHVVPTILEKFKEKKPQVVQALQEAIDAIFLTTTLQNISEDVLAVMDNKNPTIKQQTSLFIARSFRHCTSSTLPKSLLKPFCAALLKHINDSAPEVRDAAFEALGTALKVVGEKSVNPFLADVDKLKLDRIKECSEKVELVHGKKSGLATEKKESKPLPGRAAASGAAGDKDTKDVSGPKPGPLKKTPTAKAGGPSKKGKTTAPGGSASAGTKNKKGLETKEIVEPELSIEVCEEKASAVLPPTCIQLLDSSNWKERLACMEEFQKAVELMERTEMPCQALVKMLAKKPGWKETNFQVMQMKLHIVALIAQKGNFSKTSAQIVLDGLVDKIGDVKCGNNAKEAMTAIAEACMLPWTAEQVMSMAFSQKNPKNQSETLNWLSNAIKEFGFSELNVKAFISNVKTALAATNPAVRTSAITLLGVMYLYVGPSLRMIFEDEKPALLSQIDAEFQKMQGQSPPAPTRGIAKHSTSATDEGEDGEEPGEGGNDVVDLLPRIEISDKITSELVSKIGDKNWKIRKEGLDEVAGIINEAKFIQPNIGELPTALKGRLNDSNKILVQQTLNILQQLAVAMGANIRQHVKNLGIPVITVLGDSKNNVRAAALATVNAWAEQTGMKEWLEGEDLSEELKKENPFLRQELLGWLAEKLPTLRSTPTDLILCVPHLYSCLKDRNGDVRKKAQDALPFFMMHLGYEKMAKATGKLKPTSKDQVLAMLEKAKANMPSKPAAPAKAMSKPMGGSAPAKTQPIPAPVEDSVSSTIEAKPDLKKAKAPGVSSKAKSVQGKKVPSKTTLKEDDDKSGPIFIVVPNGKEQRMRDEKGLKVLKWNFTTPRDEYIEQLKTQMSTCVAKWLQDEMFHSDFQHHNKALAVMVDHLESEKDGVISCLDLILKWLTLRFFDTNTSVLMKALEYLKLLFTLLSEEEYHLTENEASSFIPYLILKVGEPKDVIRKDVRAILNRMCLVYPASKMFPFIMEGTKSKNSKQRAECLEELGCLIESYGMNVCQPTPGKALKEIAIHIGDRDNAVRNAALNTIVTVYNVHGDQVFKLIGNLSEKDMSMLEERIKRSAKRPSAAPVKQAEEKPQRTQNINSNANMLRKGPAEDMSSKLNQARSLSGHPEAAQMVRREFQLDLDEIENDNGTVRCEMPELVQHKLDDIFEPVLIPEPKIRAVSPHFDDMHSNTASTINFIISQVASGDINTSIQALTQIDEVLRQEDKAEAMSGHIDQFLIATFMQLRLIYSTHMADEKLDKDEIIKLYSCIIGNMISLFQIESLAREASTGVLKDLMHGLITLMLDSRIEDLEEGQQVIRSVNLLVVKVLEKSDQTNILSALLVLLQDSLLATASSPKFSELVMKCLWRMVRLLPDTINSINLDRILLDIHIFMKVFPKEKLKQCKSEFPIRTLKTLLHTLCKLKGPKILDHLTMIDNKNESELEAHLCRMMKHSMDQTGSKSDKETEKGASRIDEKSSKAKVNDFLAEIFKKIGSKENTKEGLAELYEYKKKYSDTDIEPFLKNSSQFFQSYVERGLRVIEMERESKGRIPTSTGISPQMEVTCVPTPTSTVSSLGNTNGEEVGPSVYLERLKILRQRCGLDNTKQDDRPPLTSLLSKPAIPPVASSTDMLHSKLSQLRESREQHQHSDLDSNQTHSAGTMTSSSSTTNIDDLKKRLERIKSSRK
# UniProt P09055, residues 21-798: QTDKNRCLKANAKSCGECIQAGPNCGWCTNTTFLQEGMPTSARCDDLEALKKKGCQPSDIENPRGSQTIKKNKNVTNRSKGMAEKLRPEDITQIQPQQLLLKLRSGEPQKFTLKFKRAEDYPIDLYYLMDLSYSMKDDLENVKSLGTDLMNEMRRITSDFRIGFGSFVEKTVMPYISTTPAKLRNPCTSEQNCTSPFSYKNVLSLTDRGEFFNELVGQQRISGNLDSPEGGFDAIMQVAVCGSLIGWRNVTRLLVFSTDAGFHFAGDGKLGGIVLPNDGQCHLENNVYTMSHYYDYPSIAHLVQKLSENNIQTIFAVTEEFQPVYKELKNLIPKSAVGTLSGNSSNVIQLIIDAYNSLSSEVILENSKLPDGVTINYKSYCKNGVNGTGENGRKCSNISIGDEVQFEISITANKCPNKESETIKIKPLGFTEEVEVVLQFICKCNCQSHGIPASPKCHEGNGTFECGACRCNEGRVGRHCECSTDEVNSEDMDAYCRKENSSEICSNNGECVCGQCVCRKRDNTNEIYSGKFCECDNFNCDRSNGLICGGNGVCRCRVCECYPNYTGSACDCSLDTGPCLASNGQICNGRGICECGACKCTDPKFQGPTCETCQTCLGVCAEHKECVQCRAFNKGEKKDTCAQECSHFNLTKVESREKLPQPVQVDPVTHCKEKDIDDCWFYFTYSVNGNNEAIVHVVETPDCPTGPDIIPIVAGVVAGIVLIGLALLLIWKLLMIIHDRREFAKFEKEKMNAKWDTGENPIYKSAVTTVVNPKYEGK
# UniProt O35129: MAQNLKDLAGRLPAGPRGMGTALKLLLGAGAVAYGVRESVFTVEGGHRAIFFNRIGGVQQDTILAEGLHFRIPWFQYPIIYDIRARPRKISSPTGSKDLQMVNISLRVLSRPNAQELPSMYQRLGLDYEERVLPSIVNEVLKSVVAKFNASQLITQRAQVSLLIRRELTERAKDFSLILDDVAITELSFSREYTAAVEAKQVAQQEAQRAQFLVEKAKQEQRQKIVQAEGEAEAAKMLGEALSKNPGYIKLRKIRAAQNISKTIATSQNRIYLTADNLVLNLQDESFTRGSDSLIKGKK
# UniProt Q9CQ22: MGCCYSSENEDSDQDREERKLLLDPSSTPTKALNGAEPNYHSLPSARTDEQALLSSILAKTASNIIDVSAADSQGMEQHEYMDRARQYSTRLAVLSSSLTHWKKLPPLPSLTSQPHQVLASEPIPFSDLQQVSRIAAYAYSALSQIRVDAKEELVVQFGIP
# UniProt Q99JI6: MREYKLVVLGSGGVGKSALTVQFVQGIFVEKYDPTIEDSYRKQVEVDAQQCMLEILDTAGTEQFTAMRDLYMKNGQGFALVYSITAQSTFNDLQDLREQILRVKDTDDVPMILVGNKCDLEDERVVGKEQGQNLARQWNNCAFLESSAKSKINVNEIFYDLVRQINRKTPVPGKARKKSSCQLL
# UniProt P35293: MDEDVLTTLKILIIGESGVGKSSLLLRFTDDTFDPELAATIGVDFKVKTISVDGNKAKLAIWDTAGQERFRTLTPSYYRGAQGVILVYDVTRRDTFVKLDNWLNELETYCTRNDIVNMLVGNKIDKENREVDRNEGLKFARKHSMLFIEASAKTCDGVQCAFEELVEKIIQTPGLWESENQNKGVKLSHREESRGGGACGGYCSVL
# UniProt P51150: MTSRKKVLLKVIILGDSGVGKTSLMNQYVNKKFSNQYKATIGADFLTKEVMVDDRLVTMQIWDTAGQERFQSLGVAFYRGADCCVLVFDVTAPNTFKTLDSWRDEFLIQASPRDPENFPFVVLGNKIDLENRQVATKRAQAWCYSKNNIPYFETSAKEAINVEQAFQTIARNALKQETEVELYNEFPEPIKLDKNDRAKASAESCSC
# Solute carrier family 3 member 2 (P10852-2, form named): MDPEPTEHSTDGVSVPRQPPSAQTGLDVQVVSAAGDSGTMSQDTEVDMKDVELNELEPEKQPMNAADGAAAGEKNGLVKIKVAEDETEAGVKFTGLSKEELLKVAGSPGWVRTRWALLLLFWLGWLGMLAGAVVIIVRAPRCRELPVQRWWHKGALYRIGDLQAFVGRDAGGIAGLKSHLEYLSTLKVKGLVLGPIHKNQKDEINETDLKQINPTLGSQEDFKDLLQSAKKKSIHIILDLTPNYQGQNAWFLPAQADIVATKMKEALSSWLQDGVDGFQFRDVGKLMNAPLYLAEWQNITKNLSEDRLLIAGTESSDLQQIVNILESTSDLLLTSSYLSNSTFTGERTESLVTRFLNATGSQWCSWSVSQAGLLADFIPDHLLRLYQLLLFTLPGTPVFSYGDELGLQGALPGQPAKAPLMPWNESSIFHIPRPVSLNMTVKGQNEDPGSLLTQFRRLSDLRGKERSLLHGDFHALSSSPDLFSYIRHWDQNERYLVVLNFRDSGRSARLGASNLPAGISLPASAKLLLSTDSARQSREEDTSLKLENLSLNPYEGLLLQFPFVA
# UniProt E9QAE3: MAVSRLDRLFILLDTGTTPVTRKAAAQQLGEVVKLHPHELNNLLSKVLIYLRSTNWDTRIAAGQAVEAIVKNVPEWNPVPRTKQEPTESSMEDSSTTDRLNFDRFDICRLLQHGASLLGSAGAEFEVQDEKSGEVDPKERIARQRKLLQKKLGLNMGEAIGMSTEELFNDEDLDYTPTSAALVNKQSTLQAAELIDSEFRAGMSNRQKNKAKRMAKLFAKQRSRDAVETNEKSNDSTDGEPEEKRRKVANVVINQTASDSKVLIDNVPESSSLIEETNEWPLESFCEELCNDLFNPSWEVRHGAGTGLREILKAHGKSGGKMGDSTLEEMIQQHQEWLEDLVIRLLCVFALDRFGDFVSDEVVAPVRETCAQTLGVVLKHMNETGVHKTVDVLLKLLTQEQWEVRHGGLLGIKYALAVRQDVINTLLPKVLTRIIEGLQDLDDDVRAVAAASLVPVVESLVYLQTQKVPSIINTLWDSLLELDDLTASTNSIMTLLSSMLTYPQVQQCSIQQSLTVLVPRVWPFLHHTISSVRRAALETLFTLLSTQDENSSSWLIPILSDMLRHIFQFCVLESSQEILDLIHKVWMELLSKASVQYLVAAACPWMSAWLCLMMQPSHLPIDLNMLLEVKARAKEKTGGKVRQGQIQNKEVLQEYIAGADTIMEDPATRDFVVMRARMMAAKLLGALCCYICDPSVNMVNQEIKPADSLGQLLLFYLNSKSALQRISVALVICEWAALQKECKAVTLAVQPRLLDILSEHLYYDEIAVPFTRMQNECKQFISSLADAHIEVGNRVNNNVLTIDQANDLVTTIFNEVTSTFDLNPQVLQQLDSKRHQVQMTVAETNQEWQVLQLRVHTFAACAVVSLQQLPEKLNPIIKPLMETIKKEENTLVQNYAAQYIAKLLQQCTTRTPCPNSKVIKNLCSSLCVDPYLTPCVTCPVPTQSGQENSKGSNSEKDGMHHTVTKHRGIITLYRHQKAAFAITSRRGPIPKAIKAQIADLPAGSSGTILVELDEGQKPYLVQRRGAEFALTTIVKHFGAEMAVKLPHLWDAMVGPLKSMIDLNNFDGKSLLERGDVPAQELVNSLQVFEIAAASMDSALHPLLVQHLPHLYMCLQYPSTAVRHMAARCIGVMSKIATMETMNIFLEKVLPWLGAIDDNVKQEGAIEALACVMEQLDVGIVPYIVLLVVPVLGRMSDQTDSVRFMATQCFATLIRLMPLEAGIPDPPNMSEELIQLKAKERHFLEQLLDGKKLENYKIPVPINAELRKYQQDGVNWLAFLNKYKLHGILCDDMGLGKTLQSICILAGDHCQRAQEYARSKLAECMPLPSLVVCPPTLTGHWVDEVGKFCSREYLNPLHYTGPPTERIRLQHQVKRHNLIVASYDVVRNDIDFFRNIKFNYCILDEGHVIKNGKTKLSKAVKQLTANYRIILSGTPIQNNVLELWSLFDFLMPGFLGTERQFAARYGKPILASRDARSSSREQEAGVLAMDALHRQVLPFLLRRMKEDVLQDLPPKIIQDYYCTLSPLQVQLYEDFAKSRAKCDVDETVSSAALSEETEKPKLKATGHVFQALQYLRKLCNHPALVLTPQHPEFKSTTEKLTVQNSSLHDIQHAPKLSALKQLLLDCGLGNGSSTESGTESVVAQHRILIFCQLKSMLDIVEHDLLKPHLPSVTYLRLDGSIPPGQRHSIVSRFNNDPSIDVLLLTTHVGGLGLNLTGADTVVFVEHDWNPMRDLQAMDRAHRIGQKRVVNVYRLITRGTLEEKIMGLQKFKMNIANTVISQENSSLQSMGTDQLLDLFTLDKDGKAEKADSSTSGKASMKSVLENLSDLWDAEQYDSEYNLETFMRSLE
# UniProt Q9QUI0: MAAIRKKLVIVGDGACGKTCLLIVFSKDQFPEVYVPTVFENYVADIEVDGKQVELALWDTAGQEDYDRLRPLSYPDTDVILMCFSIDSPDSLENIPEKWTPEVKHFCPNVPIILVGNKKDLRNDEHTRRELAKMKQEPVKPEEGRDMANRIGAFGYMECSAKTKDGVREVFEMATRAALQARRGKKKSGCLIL
# UniProt P63024: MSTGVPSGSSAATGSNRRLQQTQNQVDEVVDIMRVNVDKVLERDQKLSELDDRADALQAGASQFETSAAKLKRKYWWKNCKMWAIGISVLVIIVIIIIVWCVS
# Results are given in words; binding and its absence hold for the method and conditions named. In cells and extracts the contact can be indirect. A yes stands for co-enrichment or nearness to the bait. Other partners may have been found. Sequences can lack the tags named with a protein.
# T1: murine EpCAM in fusion with yellow fluorescent protein (YFP) at the C-terminus, in mF9 cells (murine) (UniProt Q99JW5)
# T1 sequence: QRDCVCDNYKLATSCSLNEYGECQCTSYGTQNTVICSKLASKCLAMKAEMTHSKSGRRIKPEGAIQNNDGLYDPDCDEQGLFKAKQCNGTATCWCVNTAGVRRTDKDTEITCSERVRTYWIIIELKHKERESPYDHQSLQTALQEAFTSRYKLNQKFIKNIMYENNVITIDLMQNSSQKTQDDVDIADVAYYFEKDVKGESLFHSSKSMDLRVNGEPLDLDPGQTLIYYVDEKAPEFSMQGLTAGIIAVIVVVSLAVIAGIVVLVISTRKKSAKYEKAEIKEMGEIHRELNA
# Target: T1, murine EpCAM in fusion with yellow fluorescent protein (YFP) at the C-terminus, in mF9 cells (murine)
# Assay: affinity purification with mass spectrometry; SILAC: whole cell lysates of mF9 cells stably expressing EpCAM-YFP (heavy, Lys-8/Arg-10) or YFP (light); 3 or 7 mg lysate with 30 μL GFP-Trap agarose beads, 3 hrs, 4°C; washed in 0.2% tween in PBS; LC-MS/MS; three biological repeats; hits: enriched >3-fold over YFP, p ≤ 0.05, at least 2 unique peptides
row,Molecule,binding
1,Bcl2-associated anthanogene 6 (from UniProt Q9Z1R2 1-1154),binds
2,Cytoskeleton-associated protein 5 (from UniProt A2AGT5 1-2032),binds
3,DnaJ heat shock protein family (Hsp40) member C13 (from UniProt D4AFX7 1-2248),binds
4,DnaJ homolog subfamily A member 1 (from UniProt P63037 1-397),binds
5,Integrin alpha-6 (mouse (endogenous in mF9)),binds
6,Integrin beta-1 (from UniProt P09055-1 21-798),binds
7,Low-density lipoprotein receptor-related 2 (mouse (endogenous in mF9)),binds
8,Manganese-transporting ATPase 13A1 (from UniProt Q9EPE9 1-1200),binds
9,Mon2 (from UniProt Q80TL7-1 1-1715),binds
10,Prohibitin-2 (from UniProt O35129 1-299),binds
11,Ragulator complex protein LAMTOR1 (from UniProt Q9CQ22 1-161),binds
12,Ras-related protein 1b (from UniProt Q99JI6 1-184),binds
13,Ras-related protein Rab8a (from UniProt P55258 1-207),binds
14,Ras-related protein Rab18 (from UniProt P35293 1-206),binds
15,Ras-related protein Rab-6A (from UniProt P35279-1 1-208),binds
16,Ras-related protein Rab-7 (from UniProt P51150 1-207),binds
17,Scan domain-containing protein 3 (from UniProt B2RPU8),binds
18,Sec1 family domain-containing protein 1 (from UniProt Q8BRF7-1 1-639),binds
19,Solute carrier family 3 member 2 (from UniProt P10852-2 1-565),binds
20,TATA-binding protein-associated factor 172 (from UniProt E9QAE3 1-1848),binds
21,Telomere-associated protein Rif1 (from UniProt Q6PR54 1-2419),binds
22,Voltage-dependent anion-selective channel 1 (from UniProt Q60932-1 1-296),binds
23,eIF-2-alpha kinase activator (from UniProt E9PVA8 1-2671),binds
24,"Flotillin-2 (protein, UniProt Q60634 1-428) MGNCHTVGPNEALVVSGGCCGSDYKQYVFGGWAWAWWCISDTQRISLEIMTLQPRCEDVETAEGVALTVTGVAQVKIMTEKELLAVACEQFLGKNVQDIKNVVLQTLEGHLRSILGTLTVEQIYQDRDQFAKLVREVAAPDVGRMGIEILSFTIKDVYDKVDYLSSLGKTQTAVVQRDADIGVAEAERDAGIREAECKKEMLDVKFMADTKIADSKRAFELQKSAFSEEVNIKTAEAQLAYELQGAREQQKIRQEEIEIEVVQRKKQIAVEAQEILRTDKELIATVRRPAEAEAHRIQQIAEGEKVKQVLLAQAEAEKIRKIGEAEAAVIEAMGKAEAERMKLKAEAYQKYGDAAKMALVLEALPQIAAKISAPLTKVDEIVVLSGDNSKVTSEVNRLLAELPASVHALTGVDLSKIPLIKNATGAQV",binds
25,"Vesicle-associated membrane protein 8 (protein, UniProt O70404 1-101) MEEASGSAGNDRVRNLQSEVEGVKNIMTQNVERILSRGENLDHLRNKTEDLEATSEHFKTTSQKVARKFWWKNVKMIVIICVIVLIIVILIILFATGTIPT",binds

# Continued, values first:
row,binding,Molecule
1,binds,CCR4-NOT transcription complex subunit 1 (from UniProt Q6ZQ08-4 1-2376)
2,binds,Cancerous inhibitor of PP2A (from UniProt Q8BWY9 1-907)
3,binds,Cytochrome b5 (from UniProt P56395 1-134)
4,binds,DnaJ homolog subfamily A member 2 (from UniProt Q9QYJ0 1-412)
5,binds,Guanine nucleotide-binding protein G 8K) subunit alpha (from UniProt Q9DC51 1-354)
6,binds,Ras-related protein Rab-1B (from UniProt Q9D1G1 1-201)
7,binds,Transforming protein RhoA (from UniProt Q9QUI0 1-193)
8,binds,Vesicle-associated membrane protein 3 (from UniProt P63024 1-103)
9,binds,"Armadillo repeat-containing protein 10 (protein, UniProt Q9D0L7-1 1-306) MGGARDVGWVAAGLVLGAGACYCIYRLTRGPRRGGRRLRPSRSAEDLTDGSYDDILNAEQLKKLLYLLESTDDPVITEKALVTLGNNAAFSTNQAIIRELGGIPIVGNKINSLNQSIKEKALNALNNLSVNVENQTKIKIYVPQVCEDVFADPLNSAVQLAGLRLLTNMTVTNDYQHLLSGSVAGLFHLLLLGNGSTKVQVLKLLLNLSENPAMTEGLLSVQVDSSFLSLYDGQVANEILLRALTLFQNINNCLKVEGRLANQIPFAKGSLFFLLYGEECAQKMRALACHHDVDVKEKALAIKPKF"
10,binds,"Cleft lip and palate transmembrane protein 1 (protein, UniProt Q8VBZ3 1-664) MAAAQEADGAGSAVVAAGGGSSGQVTSNGSIGRDTPAETQPQNPPPQPAPNAWQVIKGVLFRIFIIWAISSWFRRGPSPQDQSGPGGAPRVASRNLFPKDTLMNLHVYISEHEHFTDFNATSALFWEQHDLVYGDWTSGENSDGCYEHFAELDIPQSVQQNGSIYIHVYFTKSGFHPDPRQKALYRRLATVHMSRMINKYKRRRFQKTKNLLTGETEADPEMIKRAEDYGPVEVISHWHPNITINIVDDHTPWVKGSVPPPLDQYVKFDAVSGDYYPIIYFNDYWNLQKDYYPINESLASLPLRVSFCPLSLWRWQLYAAQSTKSPWNFLGDELYEQSDEEQDSVKVALLETSPYLLALTIIVSIVHSVFEFLAFKNDIQFWNSRQSLEGLSVRSVFFGVFQSFVVLLYILDNETNFVVQVSVFIGVLIDLWKITKVMDVRLDREHRVAGIFPCPTFKDKSTYIESSTKVYDDMAFRYLSWILFPLLGCYAVYSLLYLEHKGWYSWVLSMLYGFLLTFGFITMTPQLFINYKLKSVAHLPWRMLTYKALNTFIDDLFAFVIKMPVMYRIGCLRDDVVFFIYLYQRWIYRVDPTRVNEFGMSGEDVSAAASRAQASTAAGALTPAPSTAVSGEDASTVPKATSGACTASQPQEAPPKPAEDKKKD"
11,binds,"Phosphatidate cytidylyltransferase 2 (protein, UniProt Q99L43 1-444) MTELRQRVVREDAPPEDKESESEAKLDGETASDSESRAETAPLPTSVDDTPEVLNRALSNLSSRWKNWWVRGILTLAMIAFFFIIIYLGPMVLMMIVMCVQIKCFHEIITIGYNVYHSYDLPWFRTLSWYFLLCVNYFFYGETVTDYFFTLVQREEPLRILSKYHRFISFALYLTGFCMFVLSLVKKHYRLQFYMFGWTHVTLLIVVTQSHLVIHNLFEGMIWFIVPISCVICNDIMAYMFGFFFGRTPLIKLSPKKTWEGFIGGFFATVVFGLLLSYVMSGYRCFVCPVEYNNDTNSFTVDCEPSDLFRLQEYNIPGVIQSAIGWKTVRMYPFQIHSIALSTFASLIGPFGGFFASGFKRAFKIKDFANTIPGHGGIMDRFDCQYLMATFVNVYIASFIRGPNPSKLIQQFLTLRPDQQLHIFNTLKSHLTDKGILTSALEDE"
